Results taken from PubChem BioAssay AID504444 (National Center for Advancing Translational Sciences (NCATS), 2011).
Hit rate of the full screen: of about 360,000 compounds, about 7,500 (2.1%) were called active. The inconclusive results got no clear call from the source; some entries with a clear call stand among them for comparison. Calls follow the shape of the dose curve; as a rule, active = well fitted inhibition curve with a large enough effect; inconclusive = small, poorly fitted or top-dose-only effect, or effect the other way; inactive = flat fitted curve, though single readings scatter. Potencies beside an inconclusive call are fits to weak or partial responses and may not hold up.

Assay: Nrf2 qHTS screen for inhibitors; also: nearly all actives have a fitted effect of over 60% in size
Settings: A549 ARE-Fluc reporter, luciferase luminescence, 18-24 h; activity change, negative = inhibition: at 46 µM (top of the series)
Summary of the method: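 Two sequential reads on A549 ARE_Fluc cells exposed to compound for 18-24 h: a CellTiter-Fluor fluorescence read for viability, then a luciferase luminescence read for Nrf2/ARE activity.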
% is scaled to controls: 0 for no effect and ±100 for the full control effect; potency is read from the fitted curve at half-maximal effect.

Structure (SMILES) | Potency | activity change, negative = inhibition
CCCc1cc(=O)[nH]c(SCC(=O)N2CCN(c3ccccc3)CC2)n1 | inconclusive: 29.1 µM [falling, partial curve, poor fit] | 
Cc1ccc(NC(=O)CSc2ccccc2)cc1S(=O)(=O)N1CCCCC1 | active: 23.1 µM | 
NC(N)=N/N=C(\N=Nc1ccccc1)c1cccc2cccnc12 | inconclusive: 2.91 µM [activator, partial curve] | 
CCNc1c(NS(=O)(=O)c2ccc(C3CCCCC3)cc2)c(=O)oc2ccccc12 | inconclusive: 18.4 µM [falling, partial curve, poor fit] | 
Cc1ccc(S(=O)(=O)Oc2cccc(/C=N/Nc3ccc(C(=O)O)cc3)c2)cc1 |  | inactive: 15.7%
Cc1cccc(NC(=O)Cn2nnc(-c3nc(-c4ccncc4)no3)c2N)c1 | inconclusive: 18.4 µM [activator, partial curve, poor fit] | 
N#Cc1c(Nc2ccccc2)[n+]([O-])c2ccc(Cl)cc2[n+]1[O-] | inconclusive: 23.1 µM [falling, partial curve, poor fit] | 
COc1ccc(-c2nc3n(c(=O)c2C#N)CCCS3)cc1 | inconclusive: 29.1 µM [activator, single point] | 
CCc1ccccc1NC(=O)CSc1n[nH]c(-c2cccnc2)n1 | inconclusive: 11.6 µM [falling, partial curve, poor fit] | 
C=CCn1c(O)c(N=NC(=S)Nc2ccc(OC)c(Cl)c2)c2ccccc21 | inconclusive: 14.6 µM [falling, partial curve] | 
CCOC(=O)N1CCC(NC(=O)c2cc3c(C)nc4ccccc4c3o2)CC1 | inconclusive: 18.4 µM [falling, single point] | 
O=C(N/N=C/c1ccccn1)NC12CC3CC(CC(C3)C1)C2 | inconclusive: 5.17 µM [activator, full curve] | 
CC(=O)Nc1cc2c(=O)n(Cc3ccccc3)c(C)nc2cc1N1CCOCC1 |  | inactive: 11.8%
C[C@@H]1CN([C@@H](C)CO)C(=O)c2cc(NS(C)(=O)=O)ccc2O[C@@H]1CN(C)S(=O)(=O)c1ccccc1 | inconclusive: 13 µM [activator, partial curve, poor fit] | 
Fc1ccc(N2Cc3ccsc3C=N2)cc1 | inconclusive: 16.4 µM [activator, partial curve] | 
Cc1cc(O)c(C(C)C)cc1NC(=S)Nc1cc(C(C)C)c(O)cc1C |  | inactive: -5.23%
CC(=O)Nc1nonc1-c1nnc(SCC(=O)Nc2ccc(C)cc2)n1-c1ccccc1 |  | inactive: 3.98%
Cc1ccc2c(c1)sc1nc(=O)ccn12 | inconclusive: 3.66 µM [falling, single point] | 
O=C(Nc1ccc(Cl)c(Cl)c1)N1CCCCCC1 | inconclusive: 2.59 µM [activator, full curve] | 
Cc1cc(C(=O)Nc2ccc([N+](=O)[O-])cn2)cs1 | inconclusive: 20.6 µM [activator, single point] | 
CCOC(=O)c1sc2cccc(F)c2c1S(=O)(=O)NCc1ccccc1Cl |  | inactive: -25.2%
COc1cccc(-c2sc3ccc(OC)cc3c2-c2ccc(OCCN(C)C)cc2)c1 | inconclusive: 29.1 µM [falling, single point] | 
N#CC(C#N)=C1C(=O)N(CCN2CCCCC2)c2ccccc21 |  | inactive: -10.5%

Structure (SMILES) | Potency | activity change, negative = inhibition
C=CCNc1oc(Cc2cccc3ccccc23)nc1C#N | inconclusive: 8.2 µM [falling, partial curve, poor fit] | 
CCc1ccc([C@@H]2CC=C(C(=O)O)[C@H](c3ccccc3)N2S(=O)(=O)c2ccc(C)cc2)cc1 |  | inactive: 3.15%
Cc1ccc(Cl)cc1NC(=O)c1cc2ccccc2cc1O | inconclusive: 29.1 µM [falling, single point] | 
C=C[C@@H]1c2cccc(C)c2N(S(=O)(=O)c2ccc(C)cc2)[C@H](c2ccc(OC(C)=O)cc2)C1(C#N)C#N | inconclusive: 29.1 µM [falling, single point] | 
Cc1cc(NC(=O)Cc2ccccc2)cc(-c2nc3ccccc3o2)c1O |  | inactive: 3.15%
S=C(NCc1ccco1)N1CCN(c2ccc(Cl)cc2)CC1 | inconclusive: 29.1 µM [falling, single point] | 
CC12CC(O)C3C(CCC4=CC(=O)CCC43C)C1CCC2=CCO (configuration not stated) |  | inactive: -12.9%
CCc1c(C)sc(NC(=O)c2ccc(Br)o2)c1C(=O)OC | inconclusive: 29.1 µM [falling, single point] | 
CCCNC(=O)c1ccc(N(Cc2ccccc2)S(C)(=O)=O)cc1 | inconclusive: 0.231 µM [falling, full curve, poor fit] | 
CC(NC(=O)CSc1nc2c(c(C(F)(F)F)n1)CCc1ccccc1-2)c1ccccc1 (configuration not stated) | inconclusive: 29.1 µM [falling, single point] | 
O=C(CSc1n[nH]c(-c2ccc(Br)cc2)n1)NC1CCCC1 | inconclusive: 29.1 µM [falling, single point] | 
COc1ccc(CCNC(=O)c2ccc(CS(=O)Cc3ccc(C)cc3)o2)cc1OC (configuration not stated) | inconclusive: 10.3 µM [falling, partial curve, poor fit] | 
COc1ccc(NC(=O)CSc2ccccc2)c([N+](=O)[O-])c1 | inconclusive: 14.6 µM [activator, partial curve, poor fit] | 
CCn1nc(C)c(NS(=O)(=O)c2ccc(C)cc2)c1C | inconclusive: 18.4 µM [falling, partial curve] | 
CCN(CC)C(=N)N1c2ccccc2CCC1C (configuration not stated) |  | inactive: 0.599%
Cc1cc(C(=O)Nc2sc3c(c2C#N)CCC(C)C3)cs1 (configuration not stated) | inconclusive: 0.58 µM [activator, full curve] | 
Cc1n[nH]c(=O)c2c(NC(=O)CSc3nc4ccccc4c(=O)n3-c3ccc(OC(F)F)cc3)oc(C)c12 | inconclusive: 1.3 µM [falling, full curve, poor fit] | 
CCOc1c(Cl)cc(CNc2ccc(N3CCCC3)cc2)cc1OC | inconclusive: 18.4 µM [activator, single point] | 
O=C(CSc1nc(=O)n(Cc2ccccn2)c2c1CCC2)Nc1ccccc1 | active: 25.9 µM | 
O=C(c1cccc(S(=O)(=O)N2CCc3ccccc32)c1)N1CCN(c2ccccn2)CC1 | inconclusive: 9.2 µM [activator, single point] | 
COc1cc(-c2nc(S(=O)(=O)c3ccc(C)cc3)c(N3CCOCC3)o2)cc(OC)c1OC | inconclusive: 20.6 µM [falling, single point] | 
O=C(Nc1nnc(-c2ccc(Cl)cc2)o1)c1cccc(N2C(=O)CCC2=O)c1 | inconclusive: 0.731 µM [falling, partial curve, poor fit] | 
C[C@H](CO)N1C[C@H](C)[C@H](CN(C)CC2CCCCC2)Oc2ccc(NS(=O)(=O)c3ccc(F)cc3)cc2CC1=O | inconclusive: 20.6 µM [falling, single point] | 

Structure (SMILES) | Potency | activity change, negative = inhibition
CC(C)(C)OC(=O)N1CCC(c2c(C(=O)NC3CCCCC3)cnn2-c2ccc(F)cc2F)CC1 |  | inactive: -27.6%
COc1cc(CNC(=O)c2cnc(SC)nc2-c2ccccc2)cc(OC)c1OC |  | inactive: 19.7%
Cc1cccc(S(=O)(=O)c2cn(Cc3ccccc3)c3cc(N4CCCCC4)c(F)cc3c2=O)c1 |  | inactive: -8.66%
Nc1c2c(nc3ccc(Br)cc13)N(Cc1ccccc1)CC2 | inconclusive: 25.9 µM [falling, single point] | 
O=C(Nc1ccc(Cl)c(Cl)c1)Nc1nccs1 | inconclusive: 29.1 µM [activator, single point] | 
N#C/C(=C\c1ccc(-c2nc3ccccc3s2)o1)C(N)=O | inconclusive: 6.51 µM [activator, partial curve] | 
O=C(Nc1ccc(NC(=S)NC(=O)C(c2ccccc2)c2ccccc2)cc1)c1ccccc1 | inconclusive: 29.1 µM [falling, single point] | 
COc1cccc(OC)c1C(=O)Oc1ccc2c(c1)O/C(=C\c1ccncc1)C2=O | inconclusive: 29.1 µM [falling, single point] | 
CCN(CC)C(=O)c1c(-c2ccccc2)c(-c2ccccc2)nn(CC)c1=O |  | inactive: 22.7%
COc1cc(NC(=O)C2=C(N3CCOCC3)/C(=C\c3ccc(N(C)C)cc3)CCC2)cc(OC)c1OC |  | inactive: -14.3%
COc1ccccc1CC(=O)N1CCCC1 |  | inactive: 5.6%
Cc1ccc(C(=O)NCCSC2CCCCC2)cc1S(=O)(=O)Nc1ccccc1 | inconclusive: 16.4 µM [falling, partial curve, poor fit] | 
O=C(NCCc1c[nH]c2ccccc12)c1ccc(F)cc1F | inconclusive: 18.4 µM [activator, partial curve] | 
CCOC(=O)C1(CC2CCCCO2)CCN(Cc2nc(C(C)C)cs2)CC1 (configuration not stated) | inconclusive: 18.4 µM [falling, single point] | 
Cc1cccc(N(C(=O)c2nsc(Cl)c2Cl)C(C(=O)NC2CCCC2)c2ccc(O)cc2)c1C (configuration not stated) | inconclusive: 20.6 µM [falling, single point] | 
CCCOc1ccc(-c2csc(N)n2)cc1[N+](=O)[O-] | inconclusive: 16.4 µM [activator, partial curve, poor fit] | 
COCCn1c(=NC(=O)c2cc(Cl)sc2Cl)sc2cc(S(N)(=O)=O)ccc21 |  | inactive: -24.2%
COC(=O)c1cc(S(=O)(=O)NCc2ccc3c(c2)OCO3)c[nH]1 | inconclusive: 5.8 µM [falling, single point] | 
O=C(Nc1ccc2c(c1)CCCN2C(=O)c1ccco1)c1cc([N+](=O)[O-])ccc1Cl | inconclusive: 20.6 µM [activator, single point] | 
O=C(Nc1ccccc1)Nc1cccc(C(F)(F)F)c1 |  | inactive: 2.89%
CC(=O)c1ccc(NS(=O)(=O)c2ccc3c(c2)NC(=O)CCS3)cc1 | inconclusive: 16.4 µM [falling, single point] | 

Quoted from the listing:
CC(C)(C)OC(=O)N1CCC(c2c(C(=O)NC3CCCCC3)cnn2-c2ccc(F)cc2F)CC1 – activity change, negative = inhibition: inactive: -27.6%
O=C(Nc1ccc2c(c1)CCCN2C(=O)c1ccco1)c1cc([N+](=O)[O-])ccc1Cl – Potency: inconclusive: 20.6 µM [activator, single point]
Cc1cccc(N(C(=O)c2nsc(Cl)c2Cl)C(C(=O)NC2CCCC2)c2ccc(O)cc2)c1C (configuration not stated) – Potency: inconclusive: 20.6 µM [falling, single point]
Nc1c2c(nc3ccc(Br)cc13)N(Cc1ccccc1)CC2 – Potency: inconclusive: 25.9 µM [falling, single point]
